Results are given in words; binding and its absence hold for the method and conditions named. Some results given as binding are weak or reduced against the parent protein; the word gives no strength.
Target: T1, murine NFATp (mNFATp) (murine) (UniProt Q60591)
T1 sequence (looked up): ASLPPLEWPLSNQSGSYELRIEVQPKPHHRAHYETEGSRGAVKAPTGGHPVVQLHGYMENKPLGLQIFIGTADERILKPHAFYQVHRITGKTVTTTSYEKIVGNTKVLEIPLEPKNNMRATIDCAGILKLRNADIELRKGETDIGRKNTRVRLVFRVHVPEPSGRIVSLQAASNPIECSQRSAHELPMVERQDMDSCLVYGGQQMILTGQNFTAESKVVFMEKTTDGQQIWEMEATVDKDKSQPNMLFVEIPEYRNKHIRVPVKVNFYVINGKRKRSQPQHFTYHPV
Experiment: yeast two-hybrid, colonies

binding: binds
B1: murine NIP45 (mNIP45) (protein)
chain: MAEPLRGRGPRSRGGRGARRARGARGRCPRARQSPARLIPDTVLVDLVSDSDEEVLEVADPVEVPVARLPAPAKPEQDSDSDSEGAAEGPAGAPRTLVRRRRRRLLDPGEAPVVPVYSGKVQSSLNLIPDNSSLLKLCPSEPEDEADLTNSGSSPSEDDALPSGSPWRKKLRKKCEKEEKKMEEFPDQDISPLPQPSSRNKSRKHTEALQKLREVNKRLQDLRSCLSPKQHQSPALQSTDDEVVLVEGPVLPQSSRLFTLKIRCRADLVRLPVRMSEPLQNVVDHMANHLGVSPNRILLLFGESELSPTATPSTLKLGVADIIDCVVLASSSEATETSQELRLRVQGKEKHQMLEISLSPDSPLKVLMSHYEEAMGLSGHKLSFFFDGTKLSGKELPADLGLESGDLIEVWG
